Data as given in PubChem BioAssay AID1159584 (Peter MacCallum Cancer Centre, 2016).
This is an unselected part of about 18,000 reagents. Not all columns of the deposit are shown. Reagent sequences are not shown. Not given: the amount of reagent, the time to read-out.

Purpose: 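Genes whose loss is lethal only together with E-cadherin loss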 (primary screen)
System: human MCF10A breast epithelial cells, parental and CDH1-null
Knock-down reagent: siRNA against human genes
Detection: 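ATP luminescence (CellTiter-Glo) viability per line relative to mean mock wells over all plates, and the ratio of CDH1-null to parental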
Reading the numbers: CDH1-null / parental viability ratio: higher = CDH1-null cells survive relatively better than parental

PIGR [SID134321642]
- CDH1-null / parental viability ratio: 0.72

KIF20A [SID134310683]
- CDH1-null / parental viability ratio: 0.88

FAM161B [SID134320297]
- CDH1-null / parental viability ratio: 0.83

METTL14 [SID134318345]
- CDH1-null / parental viability ratio: 0.83

CHRNA2 [SID152148590]
- CDH1-null / parental viability ratio: 1.3

GNAZ [SID134314975]
- CDH1-null / parental viability ratio: 1.24

SPAG1 [SID134310389]
- CDH1-null / parental viability ratio: 1.56

CHFR [SID134312141]
- CDH1-null / parental viability ratio: 0.84

NEU4 [SID134317494]
- CDH1-null / parental viability ratio: 1.04

SIGLEC5 [SID134323305]
- CDH1-null / parental viability ratio: 1.12

DEFB129 [SID134317686]
- CDH1-null / parental viability ratio: 1.34

ITGA9 [SID135621487]
- CDH1-null / parental viability ratio: 0.92

GPATCH2 [SID152150482]
- CDH1-null / parental viability ratio: 0.81

CNTN3 [SID152154931]
- CDH1-null / parental viability ratio: 0.92

Reprinted from the listing (2 entries):
SIGLEC5 [SID134323305]
- CDH1-null / parental viability ratio: 1.12

DEFB129 [SID134317686]
- CDH1-null / parental viability ratio: 1.34
